PubChem BioAssay AID1259323 | Peter MacCallum Cancer Centre, 2017

- Purpose: 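Kinase knock-downs that weaken TRPV4 calcium entry after PAR2 activation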 (primary screen)
- System: human HEK293 cells stably carrying inducible TRPV4
- Reagent: siRNA pool against human genes
- Conditions: PAR2 activation; agonist identity and dose not given
- Read-out: 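Real-time Fura-2 calcium after PAR2 activation; early peak and later plateau each as % of mock-transfected wells on the plate, mean of two plates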
- Direction: TRPV4 plateau calcium, % of mock: higher = stronger sustained TRPV4 calcium entry than mock; PAR2 peak calcium, % of mock: higher = stronger early PAR2 calcium response than mock
- Hit rule: 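Active when sustained TRPV4 plateau calcium falls below 90% of mock while the early PAR2 peak remains above 79% of mock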
Here is one part, drawn at random, of 715 reagents tested. 91 of all reagents (13%) were called active. 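Active pools lower the sustained TRPV4 phase but spare the early PAR2 peak; PAR2 agonist and dose are not stated; pools repeat across wells.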 Reagents against one gene are numbered here. Some reagents were tested in more than one well and are listed for each. The record does not give: the amount of reagent, the time to read-out.

TRPV4 plateau calcium, % of mock	PAR2 peak calcium, % of mock	Outcome	gene knocked down	pool no.
106	98	inactive	PRKD1	1
103	99.4	inactive	GK2	1
105	101	inactive	ERN2	1
111	108	inactive	PIP5K1A	1
97.8	93.1	inactive	LATS2	1
77.4	79.4	active	GCK	1
89.2	92.1	active	ACVR2B	1
93	95.5	inactive	IKBKG	1
98.8	96.9	inactive	PKN2	1
110	112	inactive	AURKB	1
105	102	inactive	HK1	1
107	101	inactive	CAMK2N1	1
93	91.6	inactive	CKMT2	1
100	102	inactive	CDK17	1
109	97.9	inactive	CDK12	1
100	102	inactive	HIPK4	1
98.5	96.5	inactive	PKLR	1
91	92.4	inactive	DCLK1	1
98.9	83.3	inactive	PRKAR1A	1
114	112	inactive	ANKK1	1
109	102	inactive	RIOK3	1
103	101	inactive	MAP3K15	1
109	102	inactive	STK36	1
87.5	92	active	ABL2	1
89.4	86.7	active	ERBB2	1
94.7	91.4	inactive	MYO3A	1
85.9	99.5	active	WNK4	1
104	104	inactive	FGFR2	1
95	79.3	inactive	PI4K2B	1
101	95.5	inactive	PIK3R3	1
85.8	81.8	active	STK11	1
110	107	inactive	ILK	1
91.8	95.3	inactive	ILK	2
105	102	inactive	ALDH18A1	1
105	107	inactive	SRPK3	1
111	105	inactive	PAK6	1
98.3	101	inactive	KIT	1
99.5	98.1	inactive	MAPKAPK5	1

Reagents listed so far called active:
TRPV4 plateau calcium, % of mock	PAR2 peak calcium, % of mock	Outcome	gene knocked down	pool no.
77.4	79.4	active	GCK	1
89.2	92.1	active	ACVR2B	1
87.5	92	active	ABL2	1
89.4	86.7	active	ERBB2	1
85.9	99.5	active	WNK4	1
85.8	81.8	active	STK11	1

Next records follow:
TRPV4 plateau calcium, % of mock	PAR2 peak calcium, % of mock	Outcome	gene knocked down	pool no.
122	107	inactive	PDK3	1
106	101	inactive	MATK	1
94.3	104	inactive	ADCK5	1
96.7	97.2	inactive	CDK11B	1
116	106	inactive	SGK3	1
90.1	90.4	inactive	SCYL3	1
106	101	inactive	PRKCI	1
113	109	inactive	PRKACA	1
88.7	96.9	active	CKM	1
99.3	97.8	inactive	EPHA7	1
89.2	91	active	MAPKAPK2	1
99.8	99.8	inactive	CERT1	1
97.1	93.5	inactive	RYK	1
92.5	93.1	inactive	AKT2	1
103	97.6	inactive	PI4K2A	1
78.7	64.6	inactive	CHEK1	1
108	112	inactive	FCSK	1
98.4	98.4	inactive	PSTK	1
119	103	inactive	MAPK1	1
95.3	93.3	inactive	EPHA6	1
93.7	95.2	inactive	CSNK1G3	1
90.5	93.7	inactive	CLK4	1
95	95.8	inactive	TRIM27	1
97.7	99.3	inactive	SYK	1
98.5	103	inactive	SGK1	1
104	96.5	inactive	CSNK2B	1
94.1	96.1	inactive	MKNK2	1
92	91.2	inactive	WHR1	1
91.7	87.4	inactive	PDGFRB	1
98	98.1	inactive	PFKM	1
102	98.9	inactive	NEK11	1
109	104	inactive	DGKH	1
107	101	inactive	CRIM1	1
97.5	98.1	inactive	MAP2K6	1
93.9	97.7	inactive	FGFR3	1
104	107	inactive	AK5	1
118	104	inactive	PRPS1	1
102	99.9	inactive	MAGI1	1
108	102	inactive	CAMKK1	1
88.1	91.7	active	CAMKK1	1
106	106	inactive	PLK2	1
121	108	inactive	PKM	1
90.4	96.6	inactive	FLT1	1
121	114	inactive	LIMK2	1
101	99	inactive	PBK	1
116	102	inactive	MASTL	1
